Results published in the supplement of paper PMC12819154, “High-throughput peptide-centric local stability assay extends protein–ligand identification to membrane proteins, tissues and bacteria” (Nature Structural & Molecular Biology, 2025).
This is one part of the list. Most values lie at the level of the controls, where differences are scatter.

Sequences of proteins named here, by UniProt entry; tags and fusion partners are left off. A change or cut given only in a name is not applied to a line headed by its entry.
UniProt Q14CS0: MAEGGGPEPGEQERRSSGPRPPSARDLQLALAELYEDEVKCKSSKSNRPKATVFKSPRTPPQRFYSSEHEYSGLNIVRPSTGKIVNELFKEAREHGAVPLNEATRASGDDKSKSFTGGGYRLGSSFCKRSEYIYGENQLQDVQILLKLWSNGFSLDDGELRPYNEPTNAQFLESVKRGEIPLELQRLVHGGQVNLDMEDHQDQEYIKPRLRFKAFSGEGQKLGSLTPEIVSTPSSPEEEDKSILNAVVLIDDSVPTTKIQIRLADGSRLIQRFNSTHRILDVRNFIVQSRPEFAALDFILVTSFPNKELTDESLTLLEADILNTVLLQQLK
UniProt Q13111, whole entry: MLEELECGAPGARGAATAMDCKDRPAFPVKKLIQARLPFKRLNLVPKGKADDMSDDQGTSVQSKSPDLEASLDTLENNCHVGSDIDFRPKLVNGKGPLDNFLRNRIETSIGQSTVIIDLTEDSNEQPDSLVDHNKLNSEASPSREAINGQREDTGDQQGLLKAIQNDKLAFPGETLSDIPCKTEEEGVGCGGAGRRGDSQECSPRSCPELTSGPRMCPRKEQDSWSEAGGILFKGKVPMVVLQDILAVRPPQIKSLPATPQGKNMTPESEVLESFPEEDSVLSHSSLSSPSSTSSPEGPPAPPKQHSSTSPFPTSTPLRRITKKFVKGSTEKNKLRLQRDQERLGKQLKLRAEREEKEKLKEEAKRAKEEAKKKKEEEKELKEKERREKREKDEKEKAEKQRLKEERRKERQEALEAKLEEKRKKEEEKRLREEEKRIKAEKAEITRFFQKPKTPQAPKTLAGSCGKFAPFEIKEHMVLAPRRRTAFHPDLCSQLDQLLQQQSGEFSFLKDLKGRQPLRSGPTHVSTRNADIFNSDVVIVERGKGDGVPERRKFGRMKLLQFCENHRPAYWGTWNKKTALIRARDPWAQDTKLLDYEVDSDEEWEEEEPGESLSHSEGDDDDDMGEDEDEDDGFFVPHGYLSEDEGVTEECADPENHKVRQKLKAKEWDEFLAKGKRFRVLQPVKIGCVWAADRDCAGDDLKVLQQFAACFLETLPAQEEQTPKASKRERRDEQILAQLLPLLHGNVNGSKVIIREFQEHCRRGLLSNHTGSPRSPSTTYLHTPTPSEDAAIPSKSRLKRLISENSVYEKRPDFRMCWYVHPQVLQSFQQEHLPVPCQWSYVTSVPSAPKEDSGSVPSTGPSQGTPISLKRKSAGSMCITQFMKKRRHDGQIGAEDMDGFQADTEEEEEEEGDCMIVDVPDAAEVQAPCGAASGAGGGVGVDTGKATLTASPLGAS
UniProt Q14690: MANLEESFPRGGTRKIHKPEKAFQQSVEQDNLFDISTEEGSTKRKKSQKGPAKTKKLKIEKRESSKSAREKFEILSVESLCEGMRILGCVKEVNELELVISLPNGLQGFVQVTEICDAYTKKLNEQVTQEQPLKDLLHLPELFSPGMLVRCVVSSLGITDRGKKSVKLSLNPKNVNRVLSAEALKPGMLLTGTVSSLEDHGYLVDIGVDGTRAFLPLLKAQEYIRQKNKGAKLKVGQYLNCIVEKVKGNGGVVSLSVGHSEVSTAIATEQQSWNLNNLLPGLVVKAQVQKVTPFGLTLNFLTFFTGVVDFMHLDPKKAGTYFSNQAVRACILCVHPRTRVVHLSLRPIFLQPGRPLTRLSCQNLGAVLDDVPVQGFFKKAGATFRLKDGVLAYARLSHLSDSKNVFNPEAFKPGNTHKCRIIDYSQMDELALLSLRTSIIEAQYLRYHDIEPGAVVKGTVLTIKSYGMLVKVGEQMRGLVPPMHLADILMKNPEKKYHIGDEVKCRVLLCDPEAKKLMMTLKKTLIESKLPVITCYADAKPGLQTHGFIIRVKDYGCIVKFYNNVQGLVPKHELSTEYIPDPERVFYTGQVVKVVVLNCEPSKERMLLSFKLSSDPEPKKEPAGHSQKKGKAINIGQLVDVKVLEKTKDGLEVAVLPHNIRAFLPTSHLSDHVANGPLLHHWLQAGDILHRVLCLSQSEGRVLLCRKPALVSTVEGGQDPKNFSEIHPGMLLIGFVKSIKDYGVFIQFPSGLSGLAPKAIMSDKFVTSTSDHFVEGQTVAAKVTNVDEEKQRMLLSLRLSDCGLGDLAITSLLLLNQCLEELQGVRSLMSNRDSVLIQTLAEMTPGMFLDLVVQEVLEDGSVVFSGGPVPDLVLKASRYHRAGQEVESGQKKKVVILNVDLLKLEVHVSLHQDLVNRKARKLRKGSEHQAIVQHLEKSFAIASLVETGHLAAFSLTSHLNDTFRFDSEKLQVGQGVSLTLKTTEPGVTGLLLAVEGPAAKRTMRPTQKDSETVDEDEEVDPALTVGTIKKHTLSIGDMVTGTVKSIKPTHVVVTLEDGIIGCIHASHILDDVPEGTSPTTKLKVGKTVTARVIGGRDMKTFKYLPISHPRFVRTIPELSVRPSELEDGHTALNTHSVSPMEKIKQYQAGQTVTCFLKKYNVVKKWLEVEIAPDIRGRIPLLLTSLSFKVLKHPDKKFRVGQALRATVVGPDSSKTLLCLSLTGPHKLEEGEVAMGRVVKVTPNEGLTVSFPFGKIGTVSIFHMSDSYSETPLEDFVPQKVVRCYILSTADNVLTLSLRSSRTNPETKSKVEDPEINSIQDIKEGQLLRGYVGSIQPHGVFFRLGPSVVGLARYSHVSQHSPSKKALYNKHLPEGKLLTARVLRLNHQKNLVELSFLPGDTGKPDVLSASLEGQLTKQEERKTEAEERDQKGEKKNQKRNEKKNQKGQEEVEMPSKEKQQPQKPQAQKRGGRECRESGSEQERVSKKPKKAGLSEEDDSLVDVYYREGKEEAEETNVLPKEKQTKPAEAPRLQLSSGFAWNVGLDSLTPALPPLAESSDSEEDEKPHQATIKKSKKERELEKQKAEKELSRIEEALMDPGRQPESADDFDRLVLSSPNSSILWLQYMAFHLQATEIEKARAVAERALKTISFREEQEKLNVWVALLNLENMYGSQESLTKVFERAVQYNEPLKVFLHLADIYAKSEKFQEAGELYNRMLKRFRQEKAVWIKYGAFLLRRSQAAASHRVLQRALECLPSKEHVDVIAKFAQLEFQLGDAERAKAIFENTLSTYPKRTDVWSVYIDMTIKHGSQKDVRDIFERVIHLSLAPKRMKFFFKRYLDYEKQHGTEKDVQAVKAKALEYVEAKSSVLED
UniProt Q14493, whole entry, looked up: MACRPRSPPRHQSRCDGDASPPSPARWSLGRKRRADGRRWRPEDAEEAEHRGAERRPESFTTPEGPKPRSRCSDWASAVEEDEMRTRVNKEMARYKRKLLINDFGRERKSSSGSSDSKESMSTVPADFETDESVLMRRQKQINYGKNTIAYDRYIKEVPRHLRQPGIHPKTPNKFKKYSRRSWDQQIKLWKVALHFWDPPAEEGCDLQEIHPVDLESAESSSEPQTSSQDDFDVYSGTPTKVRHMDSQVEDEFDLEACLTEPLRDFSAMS
UniProt Q14738, whole entry: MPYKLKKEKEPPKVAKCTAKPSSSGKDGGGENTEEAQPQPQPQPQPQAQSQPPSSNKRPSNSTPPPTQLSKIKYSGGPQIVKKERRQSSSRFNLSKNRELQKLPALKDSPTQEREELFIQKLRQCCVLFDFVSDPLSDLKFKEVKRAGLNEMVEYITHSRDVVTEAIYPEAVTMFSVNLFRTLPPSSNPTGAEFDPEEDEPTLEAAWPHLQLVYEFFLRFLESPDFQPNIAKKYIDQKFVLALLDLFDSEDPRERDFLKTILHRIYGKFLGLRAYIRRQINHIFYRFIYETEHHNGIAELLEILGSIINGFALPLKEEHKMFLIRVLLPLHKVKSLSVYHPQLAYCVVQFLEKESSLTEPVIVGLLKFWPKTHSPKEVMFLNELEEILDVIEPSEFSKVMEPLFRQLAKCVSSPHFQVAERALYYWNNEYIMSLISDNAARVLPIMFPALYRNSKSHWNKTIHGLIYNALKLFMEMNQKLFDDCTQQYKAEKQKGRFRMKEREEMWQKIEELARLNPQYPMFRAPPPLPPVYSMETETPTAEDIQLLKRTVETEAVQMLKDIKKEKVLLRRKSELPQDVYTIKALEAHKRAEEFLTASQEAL
UniProt Q13506: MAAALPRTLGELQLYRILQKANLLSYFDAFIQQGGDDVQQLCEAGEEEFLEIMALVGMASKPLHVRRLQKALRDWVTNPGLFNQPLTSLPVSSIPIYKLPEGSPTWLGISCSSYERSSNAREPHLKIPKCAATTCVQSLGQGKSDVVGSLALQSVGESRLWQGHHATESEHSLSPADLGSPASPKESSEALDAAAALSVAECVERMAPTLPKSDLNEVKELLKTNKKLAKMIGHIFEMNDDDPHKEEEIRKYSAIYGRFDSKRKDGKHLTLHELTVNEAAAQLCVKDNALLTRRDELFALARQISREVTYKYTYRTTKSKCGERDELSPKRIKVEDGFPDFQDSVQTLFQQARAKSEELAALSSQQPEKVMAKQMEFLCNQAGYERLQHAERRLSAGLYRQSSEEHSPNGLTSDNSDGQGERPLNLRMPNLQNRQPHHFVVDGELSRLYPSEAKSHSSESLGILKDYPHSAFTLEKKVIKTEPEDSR
UniProt Q13630: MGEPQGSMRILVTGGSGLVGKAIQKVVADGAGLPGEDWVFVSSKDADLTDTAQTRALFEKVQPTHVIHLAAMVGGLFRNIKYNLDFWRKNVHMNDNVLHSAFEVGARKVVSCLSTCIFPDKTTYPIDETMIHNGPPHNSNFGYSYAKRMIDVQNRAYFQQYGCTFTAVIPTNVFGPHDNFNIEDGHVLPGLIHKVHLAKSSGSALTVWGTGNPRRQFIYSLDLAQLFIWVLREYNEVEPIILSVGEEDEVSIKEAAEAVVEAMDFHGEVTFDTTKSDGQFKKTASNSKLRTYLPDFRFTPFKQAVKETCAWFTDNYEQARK
UniProt Q13257, whole entry: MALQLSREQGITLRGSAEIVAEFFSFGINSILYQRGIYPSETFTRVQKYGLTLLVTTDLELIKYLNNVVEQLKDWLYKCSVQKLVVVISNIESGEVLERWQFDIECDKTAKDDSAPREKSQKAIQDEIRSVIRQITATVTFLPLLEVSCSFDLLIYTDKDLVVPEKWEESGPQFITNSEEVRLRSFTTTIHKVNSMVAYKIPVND

Compound: Cc1nc(Nc2ncc(C(=O)Nc3c(C)cccc3Cl)s2)cc(N2CCN(CCO)CC2)n1 [dasatinib]
Assay: log2 fold change of tryptic peptide abundance, ligand vs vehicle (limited proteolysis) (log2 ratio); higher = more trypsin-susceptible (destabilized)
Settings: ligand concentration: 5 uM; sample: K562 cleared lysate

Row | Target | log2 fold change
1 | UBXN2B (peptide sequence: EHGAVPLNEATR, peptide start residue: 94) (UniProt Q14CS0) | 0.0561
2 | CHAF1A (peptide sequence: QHSSTSPFPTSTPLRR, peptide start residue: 305) (UniProt Q13111) | -0.503
3 | PDCD11 (peptide sequence: YLDYEKQHGTEK, peptide start residue: 1838) (UniProt Q14690) | 0.525
4 | SLBP (peptide sequence: LLINDFGR, peptide start residue: 99) (UniProt Q14493) | -0.0715
5 | PPP2R5D (peptide sequence: LFDDCTQQYKAEK, peptide start residue: 480) (UniProt Q14738) | 0.146
6 | NAB1 (peptide sequence: QPHHFVVDGELSR, peptide start residue: 435) (UniProt Q13506) | 0.142
7 | TSTA3 (peptide sequence: SSGSALTVWGTGNPRR, peptide start residue: 200) (UniProt Q13630) | 0.845
8 | MAD2L1 (peptide sequence: WQFDIECDKTAK, peptide start residue: 100) (UniProt Q13257) | -0.242
9 | ZNF638 (peptide sequence: GNMDEKEEKEFNTK, peptide start residue: 1305) (UniProt Q14966) | -0.534

Part of the list above, as tab-separated lines.
Row	Target	log2 fold change
7	TSTA3 (peptide sequence: SSGSALTVWGTGNPRR, peptide start residue: 200) (UniProt Q13630)	0.845
8	MAD2L1 (peptide sequence: WQFDIECDKTAK, peptide start residue: 100) (UniProt Q13257)	-0.242
